These results are taken from patent publication US5891696A, “Compositions for cytochrome P450 biotransformation reactions” (Panvera Corporation, priority 1997, dated 1999).

This data set in a line: Specific content (hemoprotein concentration per mg protein) of purified proteins. The format is physicochemical. The following applies: purified proteins used in reconstitution assays.

Molecule “P450 3A4: recombinant human protein expressed in Escherichia coli and purified” showed a Specific content of 11 nmol/mg protein.

B1: Cytochrome b5: human cytochrome b5, recombinant, expressed in Escherichia coli and purified (protein, UniProt P00167 2-134, looked up)
Cytochrome b5: AEQSDEAVKYYTLEEIQKHNHSKSTWLILHHKVYDLTKFLEEHPGGEEVLREQAGGDATENFEDVGHSTDAREMSKTFIIGELHPDDRPKLNKPPETLITTIDSSSSWWTNWVIPAISAVAVALMYRLYMAED
With B1, the Specific content came to 60 nmol/mg protein.
